Article PMC8314533
No constants are given. Whether binding was seen depends on the method and setting. Binding seen in cells or lysates may run through a third protein. Some entries that bind do so weakly or less than the wild type. For part of these data: Where a sequence is shown, tags or fusion partners need not be part of it. Blank lines part the entries; values can stand above or below the molecule they belong to.

Protein sequences, listed by entry. Tags and fused reporters are not part of them.
UniProt P46937: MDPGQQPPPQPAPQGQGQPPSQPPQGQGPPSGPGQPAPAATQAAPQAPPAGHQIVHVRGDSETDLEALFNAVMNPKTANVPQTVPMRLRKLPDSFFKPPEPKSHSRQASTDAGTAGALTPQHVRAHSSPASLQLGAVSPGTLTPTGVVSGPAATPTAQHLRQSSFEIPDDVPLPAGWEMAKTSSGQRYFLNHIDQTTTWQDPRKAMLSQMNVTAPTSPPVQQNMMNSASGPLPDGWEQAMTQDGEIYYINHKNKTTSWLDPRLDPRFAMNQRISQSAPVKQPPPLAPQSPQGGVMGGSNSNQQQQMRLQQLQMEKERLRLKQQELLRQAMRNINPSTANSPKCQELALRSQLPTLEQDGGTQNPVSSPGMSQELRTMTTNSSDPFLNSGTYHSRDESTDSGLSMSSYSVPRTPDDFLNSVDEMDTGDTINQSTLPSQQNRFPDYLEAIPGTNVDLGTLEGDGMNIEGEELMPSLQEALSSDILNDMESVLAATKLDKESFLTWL

Assays:
[1] = target: T1, Flag-MINDY1 full length (UniProt Q8N5J2); assay: co-IP; HEK293 cells transfected with 2 µg Flag-MINDY1 together with Myc-YAP full length or mutants; 24 h; NP-40 lysis buffer; IP with Flag antibody, detection with Myc antibody
T1 sequence: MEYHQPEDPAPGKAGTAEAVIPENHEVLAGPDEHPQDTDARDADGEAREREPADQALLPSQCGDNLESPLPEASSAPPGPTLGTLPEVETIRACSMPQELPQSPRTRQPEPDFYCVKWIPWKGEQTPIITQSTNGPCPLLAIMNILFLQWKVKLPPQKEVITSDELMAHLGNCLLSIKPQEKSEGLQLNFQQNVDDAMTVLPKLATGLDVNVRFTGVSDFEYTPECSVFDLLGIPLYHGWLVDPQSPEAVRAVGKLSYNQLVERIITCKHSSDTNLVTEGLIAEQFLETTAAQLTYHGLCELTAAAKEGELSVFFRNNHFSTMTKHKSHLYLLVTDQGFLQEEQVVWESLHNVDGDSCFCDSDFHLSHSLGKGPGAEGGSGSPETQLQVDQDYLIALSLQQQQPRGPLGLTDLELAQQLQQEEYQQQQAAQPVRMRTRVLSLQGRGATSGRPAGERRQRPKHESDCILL

[2] = target: Yes-associated protein (YAP) (endogenous, T24 cells) (human (endogenous in T24)) (UniProt P46937); assay: co-IP; endogenous proteins in T24 cells; harvested with RIPA lysis buffer; Co-IP with antibody as indicated; Protein A/G PLUS-Agarose, 4 °C
[3] = target: Myc-YAP full length (UniProt P46937); assay: co-IP; HEK293 cells transfected with 2 µg Myc-YAP together with Flag-MINDY1 full length or mutants; 24 h; NP-40 lysis buffer; IP with Myc antibody, detection with Flag antibody

- binding [1]: binds
Molecule: Myc-YAP full length (from UniProt P46937 1-504)

- binding [2]: binds
B1: MINDY1 (endogenous, T24 cells) (enzyme, UniProt Q8N5J2 1-469)
chain: MEYHQPEDPAPGKAGTAEAVIPENHEVLAGPDEHPQDTDARDADGEAREREPADQALLPSQCGDNLESPLPEASSAPPGPTLGTLPEVETIRACSMPQELPQSPRTRQPEPDFYCVKWIPWKGEQTPIITQSTNGPCPLLAIMNILFLQWKVKLPPQKEVITSDELMAHLGNCLLSIKPQEKSEGLQLNFQQNVDDAMTVLPKLATGLDVNVRFTGVSDFEYTPECSVFDLLGIPLYHGWLVDPQSPEAVRAVGKLSYNQLVERIITCKHSSDTNLVTEGLIAEQFLETTAAQLTYHGLCELTAAAKEGELSVFFRNNHFSTMTKHKSHLYLLVTDQGFLQEEQVVWESLHNVDGDSCFCDSDFHLSHSLGKGPGAEGGSGSPETQLQVDQDYLIALSLQQQQPRGPLGLTDLELAQQLQQEEYQQQQAAQPVRMRTRVLSLQGRGATSGRPAGERRQRPKHESDCILL

- binding [3]: binds
B2: Flag-MINDY1 full length (enzyme, UniProt Q8N5J2 1-469)
chain: MEYHQPEDPAPGKAGTAEAVIPENHEVLAGPDEHPQDTDARDADGEAREREPADQALLPSQCGDNLESPLPEASSAPPGPTLGTLPEVETIRACSMPQELPQSPRTRQPEPDFYCVKWIPWKGEQTPIITQSTNGPCPLLAIMNILFLQWKVKLPPQKEVITSDELMAHLGNCLLSIKPQEKSEGLQLNFQQNVDDAMTVLPKLATGLDVNVRFTGVSDFEYTPECSVFDLLGIPLYHGWLVDPQSPEAVRAVGKLSYNQLVERIITCKHSSDTNLVTEGLIAEQFLETTAAQLTYHGLCELTAAAKEGELSVFFRNNHFSTMTKHKSHLYLLVTDQGFLQEEQVVWESLHNVDGDSCFCDSDFHLSHSLGKGPGAEGGSGSPETQLQVDQDYLIALSLQQQQPRGPLGLTDLELAQQLQQEEYQQQQAAQPVRMRTRVLSLQGRGATSGRPAGERRQRPKHESDCILL
